Measurements reported in PubChem BioAssay AID1259308 (NCATS, 2017)
This is one part, drawn at random, of about 59,000 deposited reagents. About 1,510 of all reagents (2.6%) count as active. 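Calls use total luciferase alone and ignore viability, so some active siRNAs may act by altering cell number.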 Entries without a mark were called inactive. The numbers tell different reagents against one gene apart. Further read-outs or replicates are left out here.

Assay: 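Genes whose loss raises luciferase production in HEK293 cells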 (primary screen)
System: human HEK293 embryonic kidney cells stably expressing firefly luciferase (HEK-CMV-Luc2-Hygro)
Knock-down reagent: single siRNA against human genes, 0.8 pmol siRNA per well
Duration: 72 h
Detection: 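Luciferase light (ONE-Glo) measured on one replicate plate set and viability (CellTiter-Glo) on the other, scaled to a negative control siRNA, with robust z-scores and luciferase per cell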
Scale: total luciferase, z-score: higher = more reporter protein produced
Active means: 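An siRNA counts as active if its total luciferase robust z-score exceeds 3; genes with two or more such siRNAs out of three were retested with fresh siRNAs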
Meaning of the calls: active = raised luciferase; inactive = no rise

total luciferase, z-score, by gene and reagent
SSPN: #1 1.13; #2 -1.1; #3 0.101
PIK3CA: #1 -0.351; #2 1.6; #3 0.455
RHBDL3: #1 -0.64; #2 -1.12; #3 -0.0651
SPOCD1: #1 -0.698; #2 1.34; #3 -1.32
CPD: #1 -0.48; #2 0.502; #3 -0.661
LINC02743: #1 -1.38; #2 -0.335; #3 0.0536
NOP16: #1 -2.03; #2 -0.495; #3 -1.36
APLN: #1 -0.116; #2 1.54; #3 -0.521
MSX2: #1 2.69; #2 0.43; #3 0.0228
USP6NL: #1 -0.52; #2 -0.0401; #3 0.362
SERPINB7: #1 4.7 (active); #2 -0.292; #3 -1.47
MALL: #1 -0.266; #2 0.0791; #3 -1.13
PDXDC1: #1 -0.304; #2 -1.05; #3 -0.762
OR1D2: #1 0.0131; #2 1.55; #3 1.78
ADCY8: #1 -0.546; #2 0.154; #3 1.35
OR3A3: #1 2.97; #2 0.268; #3 -1.55
LAP3: #1 0.0706; #2 -1.58; #3 0.575
RAB39B: #1 -0.0478; #2 0.36; #3 1.11
ECE1: #1 -0.685; #2 0.115; #3 -0.159
